Some entries share one result that the patent states for a list of compounds. Some compounds share one range, which may span the group rather than tell each member.
Assay: Storage stability of 20 wt % SupraPlex formulations in sealed plastic vial at RT
Assay type: physicochemical
Settings: loaded in 20 wt % Run #65 in DI water, pH 2.5±0.5, sealed poly(propylene) vial, after 18 months

Compound: C=C(C)[C@@H]1CCC(C)=C[C@H]1c1c(O)cc(CCCCC)cc1O [CBD, cannabidiol]
- depletion from original concentration: 18-21%

Reference: patent publication US20230120666A1, “EXCIPIENTS PROVIDING STABILIZATION AND ENHANCED WATER SOLUBILIZATION AND THEIR USES” (priority 2020, published 2023)
